Source: PubChem BioAssay AID652272 (Drosophila RNAi Screening Center, 2013)
The deposit covers about 21,000 reagents; below is a random part of those that have a named target and a result. Over the whole deposit, 503 (2.4%) got an active call. 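Raw plate light values, not normalised; calls rest on replicate z-scores that were not deposited; hits include reporter decreases as well as increases.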 Names joined by + are all predicted targets of the reagent. Not given: the amount of reagent, the time to read-out.

Screen: 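Genome-wide knock-down search for components of Hedgehog signalling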 (primary screen)
Cell system: Drosophila clone 8 (Cl8) cells
Knock-down reagent: long dsRNA against Drosophila genes
Measurement: 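Firefly light from a Hedgehog-responsive ptc promoter reporter and Renilla reference light, both read on a plate reader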
Reading the numbers: firefly Hh reporter signal: higher = more ptc reporter light; Renilla reference signal: higher = more Renilla control light
Hit rule: 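Hit when the z-score averaged over two replicates is under -2 or over +3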
Meaning of the calls: active = hit: reporter lowered or raised; inactive = not a hit

CG14958 [DRSC08417] | firefly Hh reporter signal, replicate 1 = 42422; firefly Hh reporter signal, replicate 2 = 19608; Renilla reference signal, replicate 1 = 1794; Renilla reference signal, replicate 2 = 577; Outcome = inactive
CG42238 [DRSC03180] | firefly Hh reporter signal, replicate 1 = 52344; firefly Hh reporter signal, replicate 2 = 65955; Renilla reference signal, replicate 1 = 2309; Renilla reference signal, replicate 2 = 2628; Outcome = inactive
CG3792 [DRSC02725] | firefly Hh reporter signal, replicate 1 = 1.26e5; firefly Hh reporter signal, replicate 2 = 42909; Renilla reference signal, replicate 1 = 3272; Renilla reference signal, replicate 2 = 4539; Outcome = inactive
CG31086 + CG31323 [DRSC14902] | firefly Hh reporter signal, replicate 1 = 6.17e5; firefly Hh reporter signal, replicate 2 = 98420; Renilla reference signal, replicate 1 = 41296; Renilla reference signal, replicate 2 = 1824; Outcome = inactive
CG2260 [DRSC18223] | firefly Hh reporter signal, replicate 1 = 1.13e5; firefly Hh reporter signal, replicate 2 = 78701; Renilla reference signal, replicate 1 = 2601; Renilla reference signal, replicate 2 = 1909; Outcome = inactive
ppk7 (pickpocket 7) [DRSC03236] | firefly Hh reporter signal, replicate 1 = 1.21e5; firefly Hh reporter signal, replicate 2 = 55474; Renilla reference signal, replicate 1 = 2589; Renilla reference signal, replicate 2 = 5139; Outcome = inactive
dbf (doublefault) [DRSC02570] | firefly Hh reporter signal, replicate 1 = 1.35e5; firefly Hh reporter signal, replicate 2 = 45891; Renilla reference signal, replicate 1 = 2793; Renilla reference signal, replicate 2 = 4705; Outcome = inactive
aft (adrift) [DRSC07576] | firefly Hh reporter signal, replicate 1 = 1.35e5; firefly Hh reporter signal, replicate 2 = 95696; Renilla reference signal, replicate 1 = 5432; Renilla reference signal, replicate 2 = 4172; Outcome = inactive
Unc50 (Unc50 RNA binding protein) [DRSC16561] | firefly Hh reporter signal, replicate 1 = 55783; firefly Hh reporter signal, replicate 2 = 91987; Renilla reference signal, replicate 1 = 2379; Renilla reference signal, replicate 2 = 2758; Outcome = inactive
Ak1 (Adenylate kinase 1) [DRSC10248] | firefly Hh reporter signal, replicate 1 = 60653; firefly Hh reporter signal, replicate 2 = 33943; firefly Hh reporter signal, replicate 3 = 62961; Renilla reference signal, replicate 1 = 3379; Renilla reference signal, replicate 2 = 4186; Outcome = inactive
CG31807 [DRSC01550] | firefly Hh reporter signal, replicate 1 = 1.05e5; firefly Hh reporter signal, replicate 2 = 4.10e5; Renilla reference signal, replicate 1 = 2634; Renilla reference signal, replicate 2 = 16237; Outcome = inactive
CG18335 [DRSC06723] | firefly Hh reporter signal, replicate 1 = 65640; firefly Hh reporter signal, replicate 2 = 44401; Renilla reference signal, replicate 1 = 1504; Renilla reference signal, replicate 2 = 3088; Outcome = inactive
CycJ (Cyclin J) [DRSC08653] | firefly Hh reporter signal, replicate 1 = 50186; firefly Hh reporter signal, replicate 2 = 93719; Renilla reference signal, replicate 1 = 2284; Renilla reference signal, replicate 2 = 3201; Outcome = inactive
CG13700 [DRSC10049] | firefly Hh reporter signal, replicate 1 = 1.22e5; Renilla reference signal, replicate 1 = 1761; Renilla reference signal, replicate 2 = 3124; Outcome = inactive

Continued, starting with the last 3 of the part before.
CG18335 [DRSC06723] | firefly Hh reporter signal, replicate 1 = 65640; firefly Hh reporter signal, replicate 2 = 44401; Renilla reference signal, replicate 1 = 1504; Renilla reference signal, replicate 2 = 3088; Outcome = inactive
CycJ (Cyclin J) [DRSC08653] | firefly Hh reporter signal, replicate 1 = 50186; firefly Hh reporter signal, replicate 2 = 93719; Renilla reference signal, replicate 1 = 2284; Renilla reference signal, replicate 2 = 3201; Outcome = inactive
CG13700 [DRSC10049] | firefly Hh reporter signal, replicate 1 = 1.22e5; Renilla reference signal, replicate 1 = 1761; Renilla reference signal, replicate 2 = 3124; Outcome = inactive
CG12885 [DRSC14572] | firefly Hh reporter signal, replicate 1 = 69899; firefly Hh reporter signal, replicate 2 = 85277; Renilla reference signal, replicate 1 = 1837; Renilla reference signal, replicate 2 = 2155; Outcome = inactive
tou (toutatis) [DRSC06006] | firefly Hh reporter signal, replicate 1 = 1.56e5; firefly Hh reporter signal, replicate 2 = 1.16e5; Renilla reference signal, replicate 1 = 6073; Renilla reference signal, replicate 2 = 4616; Outcome = inactive
jus (julius seizure) [DRSC14861] | firefly Hh reporter signal, replicate 1 = 54546; firefly Hh reporter signal, replicate 2 = 29607; Renilla reference signal, replicate 1 = 1761; Renilla reference signal, replicate 2 = 836; Outcome = inactive
jus (julius seizure) [DRSC14862] | firefly Hh reporter signal, replicate 1 = 77201; firefly Hh reporter signal, replicate 2 = 83524; Renilla reference signal, replicate 1 = 2475; Renilla reference signal, replicate 2 = 2242; Outcome = inactive
Asator [DRSC17136] | firefly Hh reporter signal, replicate 1 = 91512; firefly Hh reporter signal, replicate 2 = 2.13e5; Renilla reference signal, replicate 1 = 3385; Renilla reference signal, replicate 2 = 7874; Outcome = inactive
P5cr (Pyrroline 5-carboyxlate reductase) [DRSC16782] | firefly Hh reporter signal, replicate 1 = 5.50e5; firefly Hh reporter signal, replicate 2 = 84395; Renilla reference signal, replicate 1 = 32205; Renilla reference signal, replicate 2 = 2356; Outcome = inactive
CG32815 [DRSC18177] | firefly Hh reporter signal, replicate 1 = 1.44e5; firefly Hh reporter signal, replicate 2 = 3.10e5; Renilla reference signal, replicate 1 = 5666; Renilla reference signal, replicate 2 = 10507; Outcome = inactive
CG32815 [DRSC18179] | firefly Hh reporter signal, replicate 1 = 1.12e5; firefly Hh reporter signal, replicate 2 = 2.29e5; Renilla reference signal, replicate 1 = 4401; Renilla reference signal, replicate 2 = 8445; Outcome = inactive
